Where “and” joins values, the source holds several entries; their conditions need not be identical. Identical values can stand only once. Hit rate of the full screen: of about 580,000 compounds, about 6,100 (1.1%) were called active. Inconclusive results, whose numbers are uncertain, are shown with a selection of clear calls. Calls follow the shape of the dose curve; as a rule, active = well fitted inhibition curve with a large enough effect; inconclusive = small, poorly fitted or top-dose-only effect, or another doubt; inactive = no such curve, though single readings can be large or run the other way. Potencies of inconclusive entries are doubtful fits and often do not repeat.
target: Polyunsaturated fatty acid lipoxygenase ALOX12 (Homo sapiens) (UniProt P18054); experiment: Primary qHTS assay for inhibitors of human arachidonate 12S-lipoxygenase (ALOX12): Round 2; details: purified 12hLO, xylenol orange hydroperoxide absorbance; activity change, negative = inhibition: at 108 µM (top of the series) unless noted
In short: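 Purified human 12hLO at 150 nM in 25 mM Hepes, 0.01% Triton X-100, pH 7.0, preincubated 15 min at room temperature with compound. Reaction started with 40 uM arachidonic acid, 30 min at room temperature. Hydroperoxide measured by Fe-xylenol orange, 573/405 nm absorbance ratio.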
% is scaled to controls: 0 for no effect and ±100 for the full control effect; potency is read from the fitted curve at half-maximal effect.

Protein sequences, listed by entry. Tags and fused reporters are not part of them. Lines headed by an entry give the natural chain unless they say otherwise; changes in a name come on top.
UniProt P18054: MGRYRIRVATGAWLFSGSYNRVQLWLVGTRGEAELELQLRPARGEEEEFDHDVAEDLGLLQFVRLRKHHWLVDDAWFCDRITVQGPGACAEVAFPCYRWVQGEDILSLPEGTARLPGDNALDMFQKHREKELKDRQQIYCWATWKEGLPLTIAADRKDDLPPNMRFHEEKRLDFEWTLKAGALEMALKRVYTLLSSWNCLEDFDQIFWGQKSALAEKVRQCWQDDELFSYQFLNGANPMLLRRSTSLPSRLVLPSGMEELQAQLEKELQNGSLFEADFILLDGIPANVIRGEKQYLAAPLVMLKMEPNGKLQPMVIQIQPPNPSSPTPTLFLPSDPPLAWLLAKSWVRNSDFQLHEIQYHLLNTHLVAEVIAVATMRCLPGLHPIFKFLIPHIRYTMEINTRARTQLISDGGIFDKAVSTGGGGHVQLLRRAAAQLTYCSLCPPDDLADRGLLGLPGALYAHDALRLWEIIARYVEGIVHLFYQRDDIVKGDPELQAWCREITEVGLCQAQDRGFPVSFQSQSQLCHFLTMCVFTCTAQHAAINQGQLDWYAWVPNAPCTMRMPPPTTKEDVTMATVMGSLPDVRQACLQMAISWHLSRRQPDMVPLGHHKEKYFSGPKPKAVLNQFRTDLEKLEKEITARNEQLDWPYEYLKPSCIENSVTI

| SMILES | activity change, negative = inhibition | Potency |
| --- | --- | --- |
| CCCNC(=O)NC(=O)COC(=O)c1csc(NCCC(C)C)n1 | inactive: -25.1% |  |
| COc1ccc(C[N+]2=C(N)N[C@@]3(C=C(C)Cn4c(=O)n(-c5ccccc5)c(=O)n43)C2)c(OC)c1 |  | inconclusive: 7.08 µM [inhibitor, full curve] |
| Cc1ccn2c(Nc3ccccc3)c(-c3c[nH]c4ccccc34)nc2c1 |  | inconclusive: 50.1 µM [inhibitor, partial curve, poor fit] |
| Brc1ccccc1/C=N/Nc1ccc2ccccc2c1 |  | inconclusive: 0.355 µM [inhibitor, full curve, poor fit] |
| CC(=O)Nc1ccc(NC(=O)c2ccc3c(c2)CCN3S(=O)(=O)c2ccc(C)cc2)cc1 |  | inconclusive: 112 µM [inhibitor, partial curve, poor fit] |
| Cc1ccc(-n2c(N)c(C(=O)N3CCN(C)CC3)sc2=S)cc1 | inactive: -17.3% |  |
| COc1cccc(-c2oc3c(c2C#CC2(N)CCCCC2)C(O)CCC3)c1 (stereo not given) |  | inconclusive: 44.7 µM [inhibitor, partial curve] |
| C[C@@H]1CN(C(=O)c2ccc3c(c2)NC(C)(CCCCc2ccccc2)CO3)C[C@H](C)O1 (stereo not given in full) | inactive: 7.68% [at 176 µM] |  |
| Oc1cccc(/C=C/c2nc(-c3ccc(F)cc3)cs2)c1 |  | inconclusive: 31.6 µM [inhibitor, partial curve, poor fit] |
| COC(=O)Cc1ccc(NC(=S)Nc2ccccn2)cc1 |  | active: 39.8 µM |
| CC1(c2ccccc2)NC(=O)N(CC(=O)Nc2ccccc2N2CCCCC2)C1=O (stereo not given) |  | inconclusive: 44.7 µM [inhibitor, partial curve, poor fit] |
| O=C(CC(c1ccccc1)c1ccccc1O)NCc1ccccc1 (stereo not given) |  | inconclusive: 79.4 µM [inhibitor, partial curve, poor fit] |
| O=C(CSc1nc2[nH]ncc2c(=O)n1-c1ccccc1)c1ccc2c(c1)OCCO2 | inactive: -3.03% |  |
| FC(F)(F)c1cccc(N2CCN(c3nnnn3-c3ccccc3)CC2)c1 |  | inconclusive: 112 µM [inhibitor, partial curve, poor fit] |
| CCOc1ccccc1C=NN=Cc1ccccc1O | inactive: 15.8% |  |
| Cc1ccccc1NC(=O)CSc1ccc(-c2ccccn2)nn1 |  | inactive |
| O=C(CN1C(=O)C2CCCCC2C1=O)Nc1nc2ccc(F)cc2s1 (stereo not given) |  | inconclusive: 89.1 µM [inhibitor, single point] |
| CS(=O)(=O)N1CCc2cc(C(=O)Nc3cccc(-c4nnc5n4CCCCC5)c3)ccc21 |  | inconclusive: 44.7 µM [inhibitor, partial curve, poor fit] |
| Nc1ccc(-n2cc(-c3ccccc3)[nH]c2=S)cc1 |  | inconclusive: 50.1 µM [inhibitor, partial curve, poor fit] |
| N#CC1=C(N)OC2=C(C(=O)CCC2)C1c1ccc(-c2ccc(Br)cc2)o1 (stereo not given) |  | inconclusive: 6.31 µM [inhibitor, full curve, poor fit] |
| Cc1cc(Cl)c(OCCOCCN2CCNCC2)c(Cl)c1 |  | inconclusive: 35.5 µM [inhibitor, partial curve, poor fit] |
| Cc1[nH]n(-c2ccccc2)c(=O)c1/C=N/c1nn[nH]n1 |  | inconclusive: 31.6 µM [inhibitor, partial curve] |

| SMILES | activity change, negative = inhibition | Potency |
| --- | --- | --- |
| O=C(Nc1ccc(Cl)cc1)c1nc2c(o1)CCN(CC1CC1)CC2 |  | inconclusive: 56.2 µM [inhibitor, partial curve, poor fit] |
| COc1cc(Cl)c(C)cc1NC(=O)CSc1cc(Cl)ccc1Cl |  | inconclusive: 50.1 µM [inhibitor, partial curve, poor fit] |
| Cc1ccc2[nH]c(=O)c(CN(CCCN(C)C)C(=O)Nc3ccc(Cl)cc3)cc2c1 |  | inconclusive: 11.2 µM [inhibitor, partial curve, poor fit] |
| OC(c1ccccc1)(c1ccccc1)C1CCN(CCCOc2cccc(C(F)(F)F)c2)CC1 |  | inconclusive: 44.7 µM [inhibitor, partial curve, poor fit] |
| COC(=O)c1ccc(C2C(c3ccccc3)=C(O)C(=O)N2c2ccc(Cl)cc2)cc1 (stereo not given) |  | inconclusive: 28.2 µM [inhibitor, partial curve] |
| CC(C)Oc1ccc(CNC(=O)c2cnc3sc(N4CCCC4)nn3c2=O)cc1 |  | inconclusive: 141 µM [inhibitor, partial curve, poor fit] |
| CCOC(=O)C1=C(COC(=O)c2ncc(Cl)c(Cl)c2Cl)NC(=O)NC1C (stereo not given) |  | inconclusive: 35.5 µM [inhibitor, partial curve, poor fit] |
| O=S(=O)(Nc1ccccc1-c1n[nH]c(C2CC2)n1)c1ccc(F)cc1Cl |  | inconclusive: 44.7 µM [inhibitor, partial curve, poor fit] |
| O=C(CSc1nnnn1-c1ccccc1)Nc1ncc(Cc2ccccc2Cl)s1 | inactive: -4.15% |  |
| N=P(N1CCOCC1)(N1CCOCC1)C12CC3CC(CC(C3)C1)C2 |  | inconclusive: 44.7 µM [inhibitor, partial curve, poor fit] |
| Cn1cc(SCC(=O)Nc2nccs2)c2ccccc21 |  | inconclusive: 112 µM [inhibitor, single point] |
| Cc1cc(=O)oc(C)c1C(=O)N1CCc2c([nH]c3ccccc23)C1C(C)C (stereo not given) |  | inconclusive: 5.62 µM [inhibitor, full curve, poor fit] |
| Cn1nc(C2CCN(C(=O)c3cc(F)ccc3F)CC2)c2c1CCOC2 | inactive: 31.3% |  |
| CCC(CC)c1nnc(NC(=O)C2CC(=O)N(CCc3ccc(F)cc3)C2)s1 (stereo not given) |  | inconclusive: 44.7 µM [inhibitor, partial curve, poor fit] |
| CCc1ccc(/C=C2\SC(=S)N(CCCC(=O)Nc3ccccn3)C2=O)cc1 | inactive: 73.7% |  |
| CCOc1ccc(N(CC(=O)NCc2ccc(F)cc2)C(=O)CCC(=O)Nc2nccs2)cc1 |  | inconclusive: 112 µM [inhibitor, partial curve, poor fit] |
| O=C(CNS(=O)(=O)c1ccc(F)cc1)N1CCCCCC1 |  | inconclusive: 0.794 µM [inhibitor, full curve, poor fit] |
| N#Cc1c(SCC(=O)N2CCOCC2)nc(N2CCOCC2)c2c1CCCC2 |  | inconclusive: 100 µM [inhibitor, single point] |
| CCN(CC)CCCOc1ccccc1-c1ccccc1 |  | inconclusive: 0.398 µM [inhibitor, full curve, poor fit] |
| COc1cc(C=C2CN(C)C(=O)C2=O)ccc1O |  | inconclusive: 100 µM [inhibitor, partial curve, poor fit] |
| Cc1ccc(S(=O)(=O)NN2C(=O)/C(=C/c3cccs3)SC2=S)cc1 |  | inconclusive: 79.4 µM [inhibitor, partial curve, poor fit] |
| COC(=O)CCNC(=O)c1ccc(C#N)cc1 | inactive: -6.68% |  |

| SMILES | activity change, negative = inhibition | Potency |
| --- | --- | --- |
| Cc1ccc(CNc2oc(COc3ccc(C)cc3)nc2C#N)cc1 |  | inconclusive: 126 µM [inhibitor, single point] |
| Cn1cccc1C(=O)OCC(=O)c1c[nH]c2ccccc12 | inactive: -3.42% |  |
| OCCn1c(CSc2nnc(-c3ccco3)n2-c2ccccc2)nc2ccc(Cl)cc21 |  | inconclusive: 100 µM [inhibitor, partial curve, poor fit] |
| CCOC1=C2CN(S(=O)(=O)c3ccc(C)cc3)[C@@H](c3ccccc3)C[C@H]2[C@H]2C(=O)N(c3ccccc3)C(=O)[C@H]2C1 |  | inconclusive: 126 µM [inhibitor, single point] |
| CC(C)(CNc1ccc(S(=O)(=O)C(F)(F)F)cc1[N+](=O)[O-])N1CCOCC1 | inactive: 468% |  |
| O=C(NCc1cccc(Br)c1)C1CCCCN1S(=O)(=O)c1ccc(F)cc1 (stereo not given) | inconclusive: -32% [inhibitor] |  |
| CCOc1ccc(N2C(=O)c3cccnc3C2Nc2ccc(C)cc2C)cc1 (stereo not given) |  | inconclusive: 50.1 µM [inhibitor, full curve, poor fit] |
| CN1CCC(=NNC(=O)CSCc2ccccc2)CC1 | inactive: 22.2% |  |
| COc1ccc(CCNCc2ccc(OCc3ccccc3)cc2)cc1 | inactive: -25.8% |  |
| COc1cccc(OCC(O)CN2CCN(c3ccccc3)CC2)c1 (stereo not given) |  | inactive and inconclusive: 35.5 µM [inhibitor, single point] |
| O=C(NCCN1CCOCC1)c1ccc2c(c1)N(Cc1c(F)cccc1Cl)C(=O)c1ccccc1S2 | inactive: -17.4% |  |
| CC(C)c1ccc(C(=O)NCCCNC(=O)c2cc3ccccc3[nH]2)cc1 | inactive: -6.57% |  |
| CC1CCN(S(=O)(=O)c2ccc3c(c2)N(C)C(=O)CC(=O)N3C)CC1 |  | inactive |
| CCOC(=O)[C@]12CCCCC/C=C\1N(CCc1ccc(Cl)cc1)C(=O)[C@H]2CC(=O)NCc1ccc(C)o1 |  | inconclusive: 25.1 µM [inhibitor, partial curve, poor fit] |
| Fc1ccccc1NC(=S)N(CCN1CCCCC1)Cc1ccco1 |  | inconclusive: 7.08 µM [inhibitor, partial curve, poor fit] |
| O=C(c1ccc2[nH]ccc2c1)N1CC(CO)C2(CCNCC2)C1 (stereo not given) |  | inconclusive: 17.8 µM [inhibitor, full curve] |
| C/C(=N\NC(=S)Nc1ccc(F)cc1)c1ccc2c(c1)OCCO2 |  | active: 35.5 µM |
| CCc1ccc(CNC(=O)CN2C(=O)C3CCCCN3c3ccc(C(=O)N4CCCC4)cc32)cc1 (stereo not given) | inactive: -18.3% |  |
| COc1ccc(N2CSC3=C(C#N)C(c4ccc(OC)c(OC)c4)CC(=O)N3C2)c(OC)c1 (stereo not given) |  | inconclusive: 35.5 µM [inhibitor, partial curve, poor fit] |
| COc1ccc(-c2cc(C(=O)O)c3cc(C)c(C)cc3n2)cc1 |  | inconclusive: 0.631 µM [inhibitor, full curve, poor fit] |
| S=C(Nc1ccccc1)Nc1nc2ccccc2n1CCOc1ccccc1 |  | inconclusive: 3.16 µM [inhibitor, full curve, poor fit] |
